No constants are given. Whether binding was seen depends on the method and setting. Some binding calls cover weakened binding; strength is not graded here.
The binders below were run against biotinylated human FX (human) (UniProt P00742) (assay: panning of an L chain library (fixed ACE910 H chain) on biotinylated human FX; no read-out printed).

Protein sequences, listed by entry. Tags and fused reporters are not part of them. Residues count along the entry.
UniProt P00742, residues 41-488: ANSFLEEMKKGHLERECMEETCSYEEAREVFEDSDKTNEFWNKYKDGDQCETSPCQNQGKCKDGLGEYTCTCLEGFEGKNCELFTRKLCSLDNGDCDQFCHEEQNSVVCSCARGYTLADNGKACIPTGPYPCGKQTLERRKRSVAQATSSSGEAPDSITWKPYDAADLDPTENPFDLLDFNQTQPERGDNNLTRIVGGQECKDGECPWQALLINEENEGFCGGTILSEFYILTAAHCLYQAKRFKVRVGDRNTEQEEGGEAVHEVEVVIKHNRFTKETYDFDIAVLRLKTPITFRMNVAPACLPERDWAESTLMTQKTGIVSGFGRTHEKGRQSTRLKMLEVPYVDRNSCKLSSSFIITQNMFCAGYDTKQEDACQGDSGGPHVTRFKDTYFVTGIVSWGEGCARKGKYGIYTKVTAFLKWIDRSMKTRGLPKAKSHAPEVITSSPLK

Row | Binder | binding
1 | JNK263 (heavy chain SEQ ID NO: 46 and light chain SEQ ID NO: 22) (antibody, V domains shown) VH: QVQLVQSGSELKKPGASVKVSCKASGYTFTDNNMDWVRQAPGQGLEWMGDINTRSGGSIYNEEFQDRVIMTVDKSTDTAYMELSSLRSEDTATYHCARRKSYGYYLDEWGEGTLVTVSS VL: DIQLTQSPSSLSASVGDSVTITCRASQSFTNYLNWYQQKPGKAPKVLIYGASTLQTGVPSRFSGGGSGAEYTLTISNLQPDDSATYYCQQSYSTPWTFGQGTKVEIK | binds
2 | JNK378 (heavy chain SEQ ID NO: 46 and light chain SEQ ID NO: 27) (antibody, V domains shown) VH: QVQLVQSGSELKKPGASVKVSCKASGYTFTDNNMDWVRQAPGQGLEWMGDINTRSGGSIYNEEFQDRVIMTVDKSTDTAYMELSSLRSEDTATYHCARRKSYGYYLDEWGEGTLVTVSS VL: NIQMTQSPSSLSASVGDTVTITCRASQDISSWLAWYQHKPGRAPRSLIYTASSLQSGVPSRFSGSGSGTDFTLTITNLQPEDFATYYCQQAHSFPWSFGPGTNVEIK | binds
3 | JNL036 (heavy chain SEQ ID NO: 46 and light chain SEQ ID NO: 29) (antibody, V domains shown) VH: QVQLVQSGSELKKPGASVKVSCKASGYTFTDNNMDWVRQAPGQGLEWMGDINTRSGGSIYNEEFQDRVIMTVDKSTDTAYMELSSLRSEDTATYHCARRKSYGYYLDEWGEGTLVTVSS VL: QSVVTQPPSVSAAPGQKVTISCSGSSSNIGNNYVSWYQQLPGTAPKLLIYDNNKRPSGIPDRFSGSKSGTSATLGITGLQTGDEADYYCGTWDSSLSAYVFGTGTKVTVL | binds
4 | JNK163 (heavy chain SEQ ID NO: 46 and light chain SEQ ID NO: 20) (antibody, V domains shown) VH: QVQLVQSGSELKKPGASVKVSCKASGYTFTDNNMDWVRQAPGQGLEWMGDINTRSGGSIYNEEFQDRVIMTVDKSTDTAYMELSSLRSEDTATYHCARRKSYGYYLDEWGEGTLVTVSS VL: NIQMTQSPSSLSASVGDRVTITCRASQSIRSYLNWYQQKPGKAPKLLIYGAFTLQTGVPSRFSGSASGTDFTLTINNLQPEDFAVYHCQQSYRIPWTFGQGTKVEIK | binds
5 | JNK382 (heavy chain SEQ ID NO: 46 and light chain SEQ ID NO: 28) (antibody, V domains shown) VH: QVQLVQSGSELKKPGASVKVSCKASGYTFTDNNMDWVRQAPGQGLEWMGDINTRSGGSIYNEEFQDRVIMTVDKSTDTAYMELSSLRSEDTATYHCARRKSYGYYLDEWGEGTLVTVSS VL: DIVMTQSPSSVSASVGDRVTITCRASQGISKWLAWYQQKPGKAPKLLIDSATNLRSGVPSRFSGSGSGTDFTLTISSLQPEDLAFYYCQQGKSFPWTFGQGTKVEIK | binds
6 | JNL056 (heavy chain SEQ ID NO: 46 and light chain SEQ ID NO: 36) (antibody, V domains shown) VH: QVQLVQSGSELKKPGASVKVSCKASGYTFTDNNMDWVRQAPGQGLEWMGDINTRSGGSIYNEEFQDRVIMTVDKSTDTAYMELSSLRSEDTATYHCARRKSYGYYLDEWGEGTLVTVSS VL: QSVLTQPPSVSAAPGQKVTISCSGSSSNIGNNYVSWYQQLPGTAPKLLIYDNNKRPSGIPDRFSGSKSGTSATLGITGLQTGDEADYYCGTWDSSLSAYVFGTGTKVTVL | binds
7 | JNK351 (heavy chain SEQ ID NO: 46 and light chain SEQ ID NO: 25) (antibody, V domains shown) VH: QVQLVQSGSELKKPGASVKVSCKASGYTFTDNNMDWVRQAPGQGLEWMGDINTRSGGSIYNEEFQDRVIMTVDKSTDTAYMELSSLRSEDTATYHCARRKSYGYYLDEWGEGTLVTVSS VL: EIVLTQSPGTLSLSPGESGTLSCRASQSVNTRYLAWYYQRPGQVPRLLIYGTSNRATGIPDRFSGSGSGTDFTLTISRLEPGDSGVYYCQQSRSSQWTFGQGTKVEIK | binds
8 | JNK360 (heavy chain SEQ ID NO: 46 and light chain SEQ ID NO: 26) (antibody, V domains shown) VH: QVQLVQSGSELKKPGASVKVSCKASGYTFTDNNMDWVRQAPGQGLEWMGDINTRSGGSIYNEEFQDRVIMTVDKSTDTAYMELSSLRSEDTATYHCARRKSYGYYLDEWGEGTLVTVSS VL: VIWMTQSPSSVSASVGDRVTITCRASQGINSRLVWYQQKPGTAPKVLIYAASSLQSGVPSRFSGSGSGTDFTLTINSLQPEDFATYYCQQGNTFPWTFGQGTKVEVK | binds
9 | JNL059 (heavy chain SEQ ID NO: 46 and light chain SEQ ID NO: 37) (antibody, V domains shown) VH: QVQLVQSGSELKKPGASVKVSCKASGYTFTDNNMDWVRQAPGQGLEWMGDINTRSGGSIYNEEFQDRVIMTVDKSTDTAYMELSSLRSEDTATYHCARRKSYGYYLDEWGEGTLVTVSS VL: NFMLTQPPSVSGAPRQRVTISCSGSSSNIGNRAVSWYQHVPGKPPRLIVYHDDVLSSGVSGRFSASKSGTSASLAISGLQSEDEADYFCAAWDARLNGWVFGGGTKLTVL | binds
10 | JNK348 (heavy chain SEQ ID NO: 46 and light chain SEQ ID NO: 24) (antibody, V domains shown) VH: QVQLVQSGSELKKPGASVKVSCKASGYTFTDNNMDWVRQAPGQGLEWMGDINTRSGGSIYNEEFQDRVIMTVDKSTDTAYMELSSLRSEDTATYHCARRKSYGYYLDEWGEGTLVTVSS VL: DIVMTQTPLSLSVTPGQPASISCKSSQSLLRSDGKTYLQWYLQKPGQSPQLLIYEVSSRFSGVPERFSGSGSGTDFTLEISRVEADDVGVYYCMQGLHLPWTFGQGTKVEVK | binds
11 | JNK339 (heavy chain SEQ ID NO: 46 and light chain SEQ ID NO: 23) (antibody, V domains shown) VH: QVQLVQSGSELKKPGASVKVSCKASGYTFTDNNMDWVRQAPGQGLEWMGDINTRSGGSIYNEEFQDRVIMTVDKSTDTAYMELSSLRSEDTATYHCARRKSYGYYLDEWGEGTLVTVSS VL: DIVMTQSPSSLSASVGDRVTITCRTSQYIGTYLNWYQQKPGKAPKLLINSVSRLQTGVPSRFTGGGSGTDFTLTISSLQPEDFATYYCQQGYSTPWTFGQGTRVEIK | binds
12 | JNK131 (heavy chain SEQ ID NO: 46 and light chain SEQ ID NO: 19) (antibody, V domains shown) VH: QVQLVQSGSELKKPGASVKVSCKASGYTFTDNNMDWVRQAPGQGLEWMGDINTRSGGSIYNEEFQDRVIMTVDKSTDTAYMELSSLRSEDTATYHCARRKSYGYYLDEWGEGTLVTVSS VL: NIQMTQSPSSVSASVGDTVTITCRASQYISDRLAWYQQKPGRPPKVLIYRASNLQSGVPSRFRGSGSGTDFTLTINSLQPEDFAIYYCQQAKNFPWAFGQGTKVEFK | binds

Results, then the binder that gave them:

Row | binding | Binder
13 | binds | JNL095 (heavy chain SEQ ID NO: 46 and light chain SEQ ID NO: 31) (antibody, V domains shown) VH: QVQLVQSGSELKKPGASVKVSCKASGYTFTDNNMDWVRQAPGQGLEWMGDINTRSGGSIYNEEFQDRVIMTVDKSTDTAYMELSSLRSEDTATYHCARRKSYGYYLDEWGEGTLVTVSS VL: SYVLTQPVSVSVARGQTATITCEGNHIGDKHVHWYHQRPGQAPILVMFRDARRPSGIPERLSGSNSGNTASLTISGAQAGDEGDYYCQVWDSSSAVVFGGGTKVTVV
14 | binds | JNL224 (heavy chain SEQ ID NO: 46 and light chain SEQ ID NO: 34) (antibody, V domains shown) VH: QVQLVQSGSELKKPGASVKVSCKASGYTFTDNNMDWVRQAPGQGLEWMGDINTRSGGSIYNEEFQDRVIMTVDKSTDTAYMELSSLRSEDTATYHCARRKSYGYYLDEWGEGTLVTVSS VL: SYVLTQPRSVSGSPGQSVTISCTGTSSDVGRYNYVSWYQQRPGKAPKVMIYDVIKRPSGVPARFSGSKSGNTASLTISGLQPEDEADYYCSSYAGASSFVFGTGTKVTVL
15 | binds | JNL260 (heavy chain SEQ ID NO: 46 and light chain SEQ ID NO: 35) (antibody, V domains shown) VH: QVQLVQSGSELKKPGASVKVSCKASGYTFTDNNMDWVRQAPGQGLEWMGDINTRSGGSIYNEEFQDRVIMTVDKSTDTAYMELSSLRSEDTATYHCARRKSYGYYLDEWGEGTLVTVSS VL: QSVLTQPPSASGTPGQRVNISCSGSRSNIANNYVSWYQHLPGTVPKVLISDNDQRSSGVPDRFSGSKSGTSASLAISGLRSEDEADYYCAAWDDRMRGFVFGSGTKVTVL
16 | binds | JNL208 (heavy chain SEQ ID NO: 46 and light chain SEQ ID NO: 33) (antibody, V domains shown) VH: QVQLVQSGSELKKPGASVKVSCKASGYTFTDNNMDWVRQAPGQGLEWMGDINTRSGGSIYNEEFQDRVIMTVDKSTDTAYMELSSLRSEDTATYHCARRKSYGYYLDEWGEGTLVTVSS VL: QSVLTQPPSVSGAPGQRVTVSCNGGSSNIGTGYDVHWYQQLPGTAPKIVIFGNSNRPSGVPGRFSGSKSGTSASLVIAGLQAEDEADYYCQSYDRSLSGYVFGTGTKVTVL
17 | binds | JNL250 (heavy chain SEQ ID NO: 46 and light chain SEQ ID NO: 39) (antibody, V domains shown) VH: QVQLVQSGSELKKPGASVKVSCKASGYTFTDNNMDWVRQAPGQGLEWMGDINTRSGGSIYNEEFQDRVIMTVDKSTDTAYMELSSLRSEDTATYHCARRKSYGYYLDEWGEGTLVTVSS VL: QSVLTQPASVSGSPGQSITISCTGTSSDVGGYNYVSWYQQHPGKAPKLTIYDVSNRPSGVSNRFSGSKSGSSASLTISGLQAEDEADYYCSSYTTSGTYVFGTGTTVTVL
18 | binds | JNL072 (heavy chain SEQ ID NO: 46 and light chain SEQ ID NO: 30) (antibody, V domains shown) VH: QVQLVQSGSELKKPGASVKVSCKASGYTFTDNNMDWVRQAPGQGLEWMGDINTRSGGSIYNEEFQDRVIMTVDKSTDTAYMELSSLRSEDTATYHCARRKSYGYYLDEWGEGTLVTVSS VL: SYELTQPLSVSVAPGQTARIPCGGNNIGNKNVHWYQQKPGQAPVLVIYRDTNRPSGIPERFSGSNSGHTATLTISGAQAGDEADYSCQVWDSGTVVFGGGTKLTVL
19 | binds | JNL281 (heavy chain SEQ ID NO: 46 and light chain SEQ ID NO: 41) (antibody, V domains shown) VH: QVQLVQSGSELKKPGASVKVSCKASGYTFTDNNMDWVRQAPGQGLEWMGDINTRSGGSIYNEEFQDRVIMTVDKSTDTAYMELSSLRSEDTATYHCARRKSYGYYLDEWGEGTLVTVSS VL: QSALTQPRSVSASPGQSVTISCTGTSSDVGFYKYVSWYQQYPGKAPKLMIYDVSKRPSGVPDRFSGSKSGNTASLTISGLQAEDEADYYCCSYAGSNTVFGTGTKVTVL
20 | binds | JNL226 (heavy chain SEQ ID NO: 46 and light chain SEQ ID NO: 38) (antibody, V domains shown) VH: QVQLVQSGSELKKPGASVKVSCKASGYTFTDNNMDWVRQAPGQGLEWMGDINTRSGGSIYNEEFQDRVIMTVDKSTDTAYMELSSLRSEDTATYHCARRKSYGYYLDEWGEGTLVTVSS VL: QSALTQPASVSGSPGQSITISCTGTSSDVGGYNYVSWYQQHPGKAPKLMIYDVSNRPSGVSNRFSGSKSGNTASLTISGLQAEDEADYYCSSYTSSSTLFGTGTKVTVL
21 | binds | JNL176 (heavy chain SEQ ID NO: 46 and light chain SEQ ID NO: 32) (antibody, V domains shown) VH: QVQLVQSGSELKKPGASVKVSCKASGYTFTDNNMDWVRQAPGQGLEWMGDINTRSGGSIYNEEFQDRVIMTVDKSTDTAYMELSSLRSEDTATYHCARRKSYGYYLDEWGEGTLVTVSS VL: SVLTQPPSLSAAPGQRVTISCSGSSSNIGNHLVSWHQQFPGTAPKALIYDNDRRPSGIPDRFSGSKSGTSATLDITGLQTGDEADYYCATWDASLRAVVFGGGTKLTVL
22 | binds | JNL263 (heavy chain SEQ ID NO: 46 and light chain SEQ ID NO: 40) (antibody, V domains shown) VH: QVQLVQSGSELKKPGASVKVSCKASGYTFTDNNMDWVRQAPGQGLEWMGDINTRSGGSIYNEEFQDRVIMTVDKSTDTAYMELSSLRSEDTATYHCARRKSYGYYLDEWGEGTLVTVSS VL: QSALTQPRSVSGSPGQSVTISCTGTSSDVGGYNYVSWYQQHPGKAPKLMIYDVSKRPSGVPDRFSGSKSGNTASLTISGLQAEDEADYYCCSYAGRRGYVFGTGTKVTVL

— patent publication US20190185578A1
